Source: PubChem BioAssay AID2685 (National Center for Advancing Translational Sciences (NCATS), 2010)
The list shows a part of the results. The main result of the screen is listed elsewhere. These columns were measured beside it and carry no call. The list favours compounds with an active or inconclusive main result. Potencies come from curve fits of mixed quality, noted in brackets.

Test: qHTS Assay for Lipid Storage Modulators in Drosophila S3 Cells;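 as to cell number change: cells counted by Cell Tracker Red CMTPX staining in the red channel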
Conditions: BODIPY lipid droplet fluorescence, 18-24 h; for cell number change: measured here: cell count max response, cells fed with added oleic acid
Procedure, shortened: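 Laser-scanning cytometry quantifies lipid droplet accumulation (500–530 nm total intensity; droplet/cell object ratio) in oleic acid-fed (400 uM added) Drosophila S3 cells treated with a concentration series. 20 uM Triacsin C defined 100% inhibition.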

[1] = measured here: lipid fluorescence (Fed channel) AC50, cells fed with added oleic acid
[2] = measured here: cell number channel AC50, cells fed with added oleic acid

SMILES | cell number change | AC50 [1] | AC50 [2]
CC(C)c1ccc(NC2=NCC(=O)N2Cc2cccs2)cc1 | -11% | 14.6 µM [falling, single point] | –
Cc1[nH]c2ccc(-c3n[nH]c(=S)n3-c3ccccc3)cc2c1C | 8.56% | 0.082 µM [rising, full curve] | –
O=C(COC(=O)c1ccccc1)NC(=O)NC1CCCC1 | -5.62% | – | –
COc1ccc(/C=C(/CC(=O)Nc2ccc(C)cc2)c2nc3ccccc3s2)cc1 | -17.9% | – | –
CCOC(=O)c1cc(C#N)c(N2CCN(c3ccc(OC)cc3)CC2)[nH]c1=O | 6.49% | – | 0.366 µM [falling, single point]
Cn1cc(CNC(=O)c2cc(-c3ccc(Br)cc3)nc3ccccc23)cn1 | -28.9% | – | 0.00731 µM [falling, full curve, poor fit]
C/C(=N\O)c1ccc(Cl)c(Cl)c1 | 11.9% | 6.51 µM [falling, single point] | –
O=C(Cn1nc(Cc2ccncc2)c2ccccc2c1=O)Nc1cccnc1Cl | 9.42% | 0.116 µM [rising, full curve, poor fit] | –
COC(=O)c1ccccc1CC1SC(N)=NC1=O (stereo not drawn) | 23.9% | – | –
Cn1cc(Br)c(-c2cccc(N3C(=O)CCCC3=O)c2)n1 | -6.14% | 0.103 µM [falling, full curve, poor fit] | –
COc1ccc(S(=O)(=O)N2CCN(c3ccccc3OC)CC2)cc1OC | 2.73% | 1.16 µM [falling, full curve, poor fit] | 0.291 µM [falling, partial curve]
CCOC(=O)/C(=C\C=C1/Sc2cc(OCC)c(OCC)cc2N1CC)C(C)=O | -98.9% | 8.2 µM [falling, partial curve] | 5.8 µM [falling, full curve]
Clc1ccc(Cl)c(Oc2ccc(Oc3nc(Cl)ccc3Cl)cc2)n1 | 2.63% | – | –
O=C(Nc1cccc(O)c1)C1CC(c2ccc(Cl)cc2)=NO1 (stereo not drawn) | 14.4% | – | –
O=S(=O)(c1ccc(Cl)cc1)N1CCC(N2CCCCCC2)CC1 | 20.1% | 29.1 µM [falling, single point] | –
Cc1ccccc1NC(=O)Cn1c(=O)oc2ccccc21 | -5.49% | 23.1 µM [rising, single point] | –
CC1CCCCC1NC(=O)COC(=O)c1ccc([N+](=O)[O-])o1 (stereo not drawn) | – | 1.84 µM [falling, partial curve] | –
CC(C)C1C(=O)CC(c2ccccc2)NC1c1ccccc1 (stereo not drawn) | 15% | 23.1 µM [rising, partial curve] | –
COc1ccc(OC)c(N(CC(=O)NCCSC2CCCCC2)S(=O)(=O)c2ccccc2)c1 | – | 13 µM [falling, partial curve] | –

Two records drawn at random from those above:
SMILES | cell number change | AC50 [1] | AC50 [2]
O=C(Cn1nc(Cc2ccncc2)c2ccccc2c1=O)Nc1cccnc1Cl | 9.42% | 0.116 µM [rising, full curve, poor fit] | –
O=C(Nc1cccc(O)c1)C1CC(c2ccc(Cl)cc2)=NO1 (stereo not drawn) | 14.4% | – | –
